Experiment: Dyeing of polyester fibers with dispersed dyestuff (shade)
[1] = polyester fibers, dispersed dyestuff

| SMILES | Shade on polyester fibers [1] | Shade on polyester fibers (Table A) |
| --- | --- | --- |
| N#Cc1cc([N+](=O)[O-])ccc1N=Nc1ccc(N(CCO)CC(F)(F)F)cc1 [Example 12] | scarlet | – |
| CCN(CC(F)(F)F)c1cc(NC(C)=O)c(N=Nc2ccc([N+](=O)[O-])cc2C#N)cc1OC [Example 6] | – | violet |
| CCN(CC(F)(F)F)c1ccc(N=Nc2c(C#N)cc([N+](=O)[O-])cc2[N+](=O)[O-])c(NC(C)=O)c1 [Example 5] | – | violet |
| COc1cc(N(C)CC(F)(F)F)ccc1N=Nc1ccc([N+](=O)[O-])cc1C#N [Example 7] | – | red |
| CC(=O)OCCN(CC(F)(F)F)c1ccc(N=Nc2ccc([N+](=O)[O-])cc2C#N)c(C)c1 [Example 11] | – | red |
| COc1cc(N(CCOC(C)=O)CC(F)(F)F)ccc1N=Nc1ccc([N+](=O)[O-])cc1C#N [Example 9] | – | red |
| CC(=O)OCCOCCN(CC(F)(F)F)c1ccc(N=Nc2ccc([N+](=O)[O-])cc2C#N)cc1 [Example 4] | – | scarlet |
| CCN(CC(F)(F)F)c1cc(NC(C)=O)c(N=Nc2c(C#N)cc([N+](=O)[O-])cc2[N+](=O)[O-])cc1OC [Example 2, [2-cyano-4,6-dinitro-benzene]-<1 azo 1>-[2-acetylamino-5-methoxy-N-ethyl-N-(2,2,2-trifluoro-ethyl)-4-amino-benzene]] | greenblue | blue |
| CCN(CC(F)(F)F)c1ccc(N=Nc2c(Br)cc([N+](=O)[O-])cc2C#N)c(NC(C)=O)c1 [Example 10] | – | violet |
| CCN(CC(F)(F)F)c1ccc(N=Nc2ccc([N+](=O)[O-])cc2C#N)c(NC(C)=O)c1 [Example 1, [2-cyano-4-nitro-benzene]-<1 azo 1>-[2-acetylamino-N-ethyl-N-(2,2,2-trifluoro-ethyl)-4-amino-benzene]] | very bright ruby | – |
| CC(=O)OCCN(CC(F)(F)F)c1ccc(N=Nc2ccc([N+](=O)[O-])cc2C#N)cc1 [Example 3] | – | scarlet |

Source: patent US4049375A, “Process for dyeing synthetic fibers formed from aromatic polyesters and new monoazo dyestuffs useful for such dyeing” (Produits Chimiques Ugine Kuhlmann, priority 1974, dated 1977)
